Results deposited as PubChem BioAssay AID1259308 (NCATS, 2017).

Purpose: 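Genes whose loss raises luciferase production in HEK293 cells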 (primary screen)
Cells: human HEK293 embryonic kidney cells stably expressing firefly luciferase (HEK-CMV-Luc2-Hygro)
Knock-down reagent: single siRNA against human genes, 0.8 pmol siRNA per well
Time to read-out: 72 h
Measured: 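Luciferase light (ONE-Glo) measured on one replicate plate set and viability (CellTiter-Glo) on the other, scaled to a negative control siRNA, with robust z-scores and luciferase per cell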
Reading the numbers: total luciferase, z-score and total luciferase, % of control: higher = more reporter protein produced
Rule for the call: 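Active when the median/MAD z-score for overall luciferase is greater than 3; a gene was taken forward for validation with new siRNAs if at least two of its three siRNAs passed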
Meaning of the calls: active = raised luciferase; inactive = no rise
In all, the deposit lists about 59,000 reagents; this is an unselected part. About 1,510 of all reagents (2.6%) count as active. 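Calls use total luciferase alone and ignore viability, so some active siRNAs may act by altering cell number.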 Reagents against one gene are numbered here. Not all columns of the deposit are shown. No sequences are given here.

gene,reagent,"total luciferase, z-score","total luciferase, % of control",Call
CCT5,1,1.58,113,inactive
CCT5,2,-0.557,70.8,inactive
CCT5,3,0.86,99,inactive
BRCC3,1,-0.936,63.3,inactive
BRCC3,2,-1.12,59.6,inactive
BRCC3,3,0.543,92.7,inactive
ALDH3A2,1,3.44,150,active
ALDH3A2,2,0.383,89.5,inactive
ALDH3A2,3,4.12,164,active
GSTM4,1,0.334,88.5,inactive
GSTM4,2,-2.17,38.6,inactive
GSTM4,3,0.14,84.7,inactive
CXXC1,1,0.98,101,inactive
CXXC1,2,0.991,102,inactive
CXXC1,3,3.02,142,active
OXGR1,1,-1.11,59.8,inactive
OXGR1,2,-0.0502,80.9,inactive
OXGR1,3,-0.32,75.5,inactive
FANCI,1,-1.68,48.4,inactive
FANCI,2,-0.696,68,inactive
FANCI,3,-0.302,75.9,inactive
ANKRD37,1,-0.268,76.6,inactive
ANKRD37,2,0.623,94.3,inactive
ANKRD37,3,0.686,95.5,inactive
SEC61A1,1,-0.0805,80.3,inactive
SEC61A1,2,3,142,active
SEC61A1,3,-0.79,66.2,inactive
ADGB,1,-1.31,55.8,inactive
ADGB,2,-1.09,60.3,inactive
ADGB,3,-0.608,69.8,inactive
TLL2,1,-2.15,39.2,inactive
TLL2,2,-0.288,76.2,inactive
TLL2,3,1.88,119,inactive
TENT5D,1,0.542,92.7,inactive
TENT5D,2,-0.543,71.1,inactive
TENT5D,3,2.12,124,inactive
THTPA,1,0.723,96.3,inactive
THTPA,2,-1.16,58.9,inactive
THTPA,3,-0.948,63,inactive
SHB,1,1.65,115,inactive
SHB,2,0.0524,82.9,inactive
SHB,3,-0.055,80.8,inactive
TMC2,1,1.85,119,inactive
TMC2,2,0.102,83.9,inactive
TMC2,3,0.886,99.5,inactive
COMMD5,1,-0.974,62.5,inactive
COMMD5,2,0.192,85.7,inactive
COMMD5,3,0.402,89.9,inactive
ALCAM,1,-1.27,56.7,inactive
ALCAM,2,-1.69,48.2,inactive
ALCAM,3,-0.626,69.4,inactive
VDAC1,1,0.273,87.3,inactive
VDAC1,2,-1.08,60.3,inactive
VDAC1,3,-0.696,68,inactive
MRPS18A,1,1.09,104,inactive
MRPS18A,2,0.786,97.5,inactive
MRPS18A,3,-1.09,60.1,inactive

Reagents above marked active, once more:
gene,reagent,"total luciferase, z-score","total luciferase, % of control",Call
ALDH3A2,1,3.44,150,active
ALDH3A2,3,4.12,164,active
CXXC1,3,3.02,142,active
SEC61A1,2,3,142,active
